From paper doi:10.1101/2023.01.24.525315 (bioRxiv, 2023) come the findings set out here.

Chains of the proteins cited; added tags and fusions are not shown. Lines headed by an entry give the natural chain unless they say otherwise; changes in a name come on top.
UniProt Q24572: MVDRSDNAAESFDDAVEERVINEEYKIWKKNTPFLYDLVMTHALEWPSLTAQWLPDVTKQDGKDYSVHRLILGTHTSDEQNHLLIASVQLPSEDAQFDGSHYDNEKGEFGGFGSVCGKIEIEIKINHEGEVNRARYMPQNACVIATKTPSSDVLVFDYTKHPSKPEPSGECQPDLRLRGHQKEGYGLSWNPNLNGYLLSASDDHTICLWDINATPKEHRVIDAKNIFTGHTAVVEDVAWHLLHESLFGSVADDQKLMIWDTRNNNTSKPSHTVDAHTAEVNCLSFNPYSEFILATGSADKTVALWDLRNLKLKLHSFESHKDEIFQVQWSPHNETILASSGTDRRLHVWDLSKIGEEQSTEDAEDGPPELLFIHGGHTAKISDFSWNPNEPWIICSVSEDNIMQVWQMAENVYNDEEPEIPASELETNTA

In experiment [1] the target is T1, GST-CBM E1591A (fly (Drosophila melanogaster)) (UniProt Q9VW15).
T1 sequence: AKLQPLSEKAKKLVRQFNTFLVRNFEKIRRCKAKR
In words: pull-down.

Experiment [2] concerns the target T2, GST-CBM (Caf1-binding-motif, Ash1 1,582-1,616) (fly (Drosophila melanogaster)) (UniProt Q9VW15).
T2 sequence: T1 sequence with A10E
In words: pull-down.

The target of experiment [3] is Ash1 1041-2226 (fly (Drosophila melanogaster)) (UniProt Q9VW15). In words: co-purification.

Positions count from the first letter of the chain named. Results are given in words; binding and its absence hold for the method and conditions named. Some entries that bind do so weakly or less than the wild type. For some of these results: Sequences can lack the tags named with a protein.

Regarding “Fly Caf1 wild-type (from UniProt Q24572 1-430)”, the binding entry in experiment [1] is reported as “no binding (tested: 0.1mg/ml)”. Consider “Caf1 H4 binding pocket mutant (D362A/D365A) (from UniProt Q24572 1-430)”, for which the binding result in experiment [2] is recorded as “no binding (tested: 0.1mg/ml)”. Turning to “Caf1 full length (co-expressed in the AMC complex) (from UniProt Q24572 1-430)”, in experiment [3], the binding result is on record as “binds”.

B1: Mrg15 full length (protein, UniProt Q9Y0I1 1-424)
chain: MGEVKPAKVENYSTGTDANTLFVDGERVLCFHGPLIYEAKVLKTKPDATPVEYYIHYAGWSKNWDEWVPENRVLKYNDDNVKRRQELARQCGERSKKDNKKGSAKAKKMEQMRNESRASTPSKDSNTSQSTASSTPTTSAGPGSKSEAGSTGTTTTNSTANSTTSRAHRKSTQSTPSTARPGTPSDKKEDPAAAETTEEEGPVAPKKKRMSEQRPSLTGSDVAEKPLPPTTTPSTPTTEPAPCVESEEAYAAKVEVKIKIPDELKHYLTDDWYAVVREHKLLELPAKVTVQQISEQYLAHKKSVKSTSASKEVAINDVLDGIVEYFNVMLGSQLLYKFERTQYADVMQKHPDTPLSELYGSFHLLRLFVRLGSMLSYSALDQQSMQNLLTHVQDFLKFLVKNSSIFFSMSNFINVDPEYVRNAQ
On to B1, for which the binding result in experiment [3] was “binds”.
